# Test results as given in ChEMBL document CHEMBL2218924, “A broad activity screen in support of a chemogenomic map for kinase signalling research and drug discovery” (Biochem J, 2013).
# Sequences of proteins named here, by UniProt entry; tags and fusion partners are left off. A change or cut given only in a name is not applied to a line headed by its entry.
# UniProt P49761: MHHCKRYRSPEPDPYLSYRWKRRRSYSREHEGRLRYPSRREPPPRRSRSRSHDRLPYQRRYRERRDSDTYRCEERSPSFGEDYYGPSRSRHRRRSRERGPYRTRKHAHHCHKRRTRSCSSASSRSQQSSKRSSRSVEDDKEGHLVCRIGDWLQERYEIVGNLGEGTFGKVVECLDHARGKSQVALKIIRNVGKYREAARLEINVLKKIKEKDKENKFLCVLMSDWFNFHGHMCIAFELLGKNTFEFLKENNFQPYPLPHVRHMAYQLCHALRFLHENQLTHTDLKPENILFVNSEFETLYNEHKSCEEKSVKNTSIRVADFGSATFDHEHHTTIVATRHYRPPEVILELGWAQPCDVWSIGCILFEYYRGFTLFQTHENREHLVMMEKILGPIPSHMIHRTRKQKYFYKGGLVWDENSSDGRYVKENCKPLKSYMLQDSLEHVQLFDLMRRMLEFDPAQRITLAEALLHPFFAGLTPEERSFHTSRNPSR
# UniProt Q14012: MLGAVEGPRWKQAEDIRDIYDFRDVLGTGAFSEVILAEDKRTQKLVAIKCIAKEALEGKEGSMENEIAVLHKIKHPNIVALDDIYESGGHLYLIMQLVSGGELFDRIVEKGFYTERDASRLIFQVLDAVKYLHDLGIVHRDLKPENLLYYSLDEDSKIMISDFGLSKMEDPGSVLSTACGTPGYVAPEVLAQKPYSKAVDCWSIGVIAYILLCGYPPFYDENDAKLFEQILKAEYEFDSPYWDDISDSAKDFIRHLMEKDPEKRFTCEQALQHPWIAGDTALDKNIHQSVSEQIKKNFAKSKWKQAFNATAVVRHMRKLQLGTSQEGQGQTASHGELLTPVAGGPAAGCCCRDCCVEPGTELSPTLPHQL
# UniProt Q9UIK4: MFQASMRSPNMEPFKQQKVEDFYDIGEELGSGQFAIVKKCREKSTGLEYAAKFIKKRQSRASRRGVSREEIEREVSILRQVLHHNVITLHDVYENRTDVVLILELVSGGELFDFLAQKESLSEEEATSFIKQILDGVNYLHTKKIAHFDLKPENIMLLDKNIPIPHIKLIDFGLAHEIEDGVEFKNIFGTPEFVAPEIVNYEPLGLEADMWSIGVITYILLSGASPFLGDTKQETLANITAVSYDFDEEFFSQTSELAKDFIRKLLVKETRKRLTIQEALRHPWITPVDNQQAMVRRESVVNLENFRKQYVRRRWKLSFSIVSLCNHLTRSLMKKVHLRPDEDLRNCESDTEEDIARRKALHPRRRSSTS
# UniProt Q8N568: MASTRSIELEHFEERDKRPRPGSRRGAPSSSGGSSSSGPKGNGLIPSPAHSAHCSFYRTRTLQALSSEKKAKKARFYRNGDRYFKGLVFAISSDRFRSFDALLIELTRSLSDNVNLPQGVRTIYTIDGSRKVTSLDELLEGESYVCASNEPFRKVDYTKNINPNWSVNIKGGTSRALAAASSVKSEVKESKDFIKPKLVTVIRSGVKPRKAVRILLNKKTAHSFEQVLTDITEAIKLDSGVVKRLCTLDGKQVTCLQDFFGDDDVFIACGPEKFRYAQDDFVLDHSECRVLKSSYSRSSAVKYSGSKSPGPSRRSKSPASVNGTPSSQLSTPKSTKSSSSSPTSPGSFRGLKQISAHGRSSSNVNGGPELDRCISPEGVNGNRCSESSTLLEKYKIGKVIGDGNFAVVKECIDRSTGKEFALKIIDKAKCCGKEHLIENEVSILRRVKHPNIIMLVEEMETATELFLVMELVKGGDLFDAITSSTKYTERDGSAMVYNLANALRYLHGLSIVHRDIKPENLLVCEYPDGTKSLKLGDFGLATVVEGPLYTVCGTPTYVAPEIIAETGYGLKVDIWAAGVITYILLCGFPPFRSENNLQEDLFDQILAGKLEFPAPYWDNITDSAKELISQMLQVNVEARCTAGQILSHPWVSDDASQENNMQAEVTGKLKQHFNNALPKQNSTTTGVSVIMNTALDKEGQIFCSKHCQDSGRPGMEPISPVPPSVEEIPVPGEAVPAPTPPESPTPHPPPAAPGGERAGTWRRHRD
# UniProt Q16832: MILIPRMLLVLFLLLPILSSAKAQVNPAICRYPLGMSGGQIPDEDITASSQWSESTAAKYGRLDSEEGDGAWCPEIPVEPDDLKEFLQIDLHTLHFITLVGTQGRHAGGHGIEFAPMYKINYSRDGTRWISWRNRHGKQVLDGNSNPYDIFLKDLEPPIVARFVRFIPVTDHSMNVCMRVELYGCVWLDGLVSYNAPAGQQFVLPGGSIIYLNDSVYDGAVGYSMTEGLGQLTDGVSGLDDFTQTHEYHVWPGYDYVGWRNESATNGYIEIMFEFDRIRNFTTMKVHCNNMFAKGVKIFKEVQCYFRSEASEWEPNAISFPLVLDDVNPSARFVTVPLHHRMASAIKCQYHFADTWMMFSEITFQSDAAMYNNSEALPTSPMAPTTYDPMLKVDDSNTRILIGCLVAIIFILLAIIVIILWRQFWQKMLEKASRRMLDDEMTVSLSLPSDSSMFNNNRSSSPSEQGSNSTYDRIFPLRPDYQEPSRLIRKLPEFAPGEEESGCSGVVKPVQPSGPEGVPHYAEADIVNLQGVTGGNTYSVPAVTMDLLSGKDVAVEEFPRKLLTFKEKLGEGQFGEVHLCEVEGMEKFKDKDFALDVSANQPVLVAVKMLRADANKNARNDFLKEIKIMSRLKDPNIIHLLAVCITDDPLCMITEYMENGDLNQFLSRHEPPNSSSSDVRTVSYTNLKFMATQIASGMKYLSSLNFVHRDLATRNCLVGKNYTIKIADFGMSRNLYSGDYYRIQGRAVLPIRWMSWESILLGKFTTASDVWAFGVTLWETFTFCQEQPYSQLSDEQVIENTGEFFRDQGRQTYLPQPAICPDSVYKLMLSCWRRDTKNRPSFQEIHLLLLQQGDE
# UniProt Q9UEE5: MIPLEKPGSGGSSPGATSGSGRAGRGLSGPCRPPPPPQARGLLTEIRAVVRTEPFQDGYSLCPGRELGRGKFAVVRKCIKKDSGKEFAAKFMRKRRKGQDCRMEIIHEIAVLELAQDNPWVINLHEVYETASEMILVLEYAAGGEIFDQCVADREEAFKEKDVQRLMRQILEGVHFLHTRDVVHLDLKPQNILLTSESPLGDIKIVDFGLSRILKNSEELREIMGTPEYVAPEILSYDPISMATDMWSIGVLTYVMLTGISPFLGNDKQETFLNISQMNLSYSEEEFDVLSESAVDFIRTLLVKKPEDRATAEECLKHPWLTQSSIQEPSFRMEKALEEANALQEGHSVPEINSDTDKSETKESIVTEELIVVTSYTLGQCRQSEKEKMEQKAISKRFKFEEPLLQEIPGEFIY
# UniProt P29317, whole entry: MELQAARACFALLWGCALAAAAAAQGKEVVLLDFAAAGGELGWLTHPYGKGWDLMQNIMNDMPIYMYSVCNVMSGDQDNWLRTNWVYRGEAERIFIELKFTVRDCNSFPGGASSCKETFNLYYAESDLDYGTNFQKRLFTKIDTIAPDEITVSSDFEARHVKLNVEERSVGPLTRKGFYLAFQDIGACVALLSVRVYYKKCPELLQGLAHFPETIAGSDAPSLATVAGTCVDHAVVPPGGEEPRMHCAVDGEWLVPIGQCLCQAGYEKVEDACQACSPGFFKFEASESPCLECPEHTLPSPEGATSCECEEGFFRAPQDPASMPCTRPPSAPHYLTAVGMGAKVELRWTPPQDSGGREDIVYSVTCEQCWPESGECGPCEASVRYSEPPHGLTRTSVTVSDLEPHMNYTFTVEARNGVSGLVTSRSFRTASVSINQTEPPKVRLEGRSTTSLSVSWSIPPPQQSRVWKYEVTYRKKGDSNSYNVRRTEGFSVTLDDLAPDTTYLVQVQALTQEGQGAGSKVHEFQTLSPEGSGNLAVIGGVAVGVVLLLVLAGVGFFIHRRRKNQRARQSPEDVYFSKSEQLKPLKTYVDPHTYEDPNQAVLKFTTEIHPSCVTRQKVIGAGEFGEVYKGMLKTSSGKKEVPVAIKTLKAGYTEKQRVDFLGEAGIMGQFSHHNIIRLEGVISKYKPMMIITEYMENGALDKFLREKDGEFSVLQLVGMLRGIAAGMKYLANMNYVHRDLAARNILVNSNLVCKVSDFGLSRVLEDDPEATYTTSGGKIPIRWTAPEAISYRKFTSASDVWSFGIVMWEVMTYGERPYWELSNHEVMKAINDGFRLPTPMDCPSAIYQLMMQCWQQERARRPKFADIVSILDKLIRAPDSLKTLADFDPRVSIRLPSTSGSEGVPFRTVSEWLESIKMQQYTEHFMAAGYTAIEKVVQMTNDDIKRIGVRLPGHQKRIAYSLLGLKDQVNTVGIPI
# UniProt P29320: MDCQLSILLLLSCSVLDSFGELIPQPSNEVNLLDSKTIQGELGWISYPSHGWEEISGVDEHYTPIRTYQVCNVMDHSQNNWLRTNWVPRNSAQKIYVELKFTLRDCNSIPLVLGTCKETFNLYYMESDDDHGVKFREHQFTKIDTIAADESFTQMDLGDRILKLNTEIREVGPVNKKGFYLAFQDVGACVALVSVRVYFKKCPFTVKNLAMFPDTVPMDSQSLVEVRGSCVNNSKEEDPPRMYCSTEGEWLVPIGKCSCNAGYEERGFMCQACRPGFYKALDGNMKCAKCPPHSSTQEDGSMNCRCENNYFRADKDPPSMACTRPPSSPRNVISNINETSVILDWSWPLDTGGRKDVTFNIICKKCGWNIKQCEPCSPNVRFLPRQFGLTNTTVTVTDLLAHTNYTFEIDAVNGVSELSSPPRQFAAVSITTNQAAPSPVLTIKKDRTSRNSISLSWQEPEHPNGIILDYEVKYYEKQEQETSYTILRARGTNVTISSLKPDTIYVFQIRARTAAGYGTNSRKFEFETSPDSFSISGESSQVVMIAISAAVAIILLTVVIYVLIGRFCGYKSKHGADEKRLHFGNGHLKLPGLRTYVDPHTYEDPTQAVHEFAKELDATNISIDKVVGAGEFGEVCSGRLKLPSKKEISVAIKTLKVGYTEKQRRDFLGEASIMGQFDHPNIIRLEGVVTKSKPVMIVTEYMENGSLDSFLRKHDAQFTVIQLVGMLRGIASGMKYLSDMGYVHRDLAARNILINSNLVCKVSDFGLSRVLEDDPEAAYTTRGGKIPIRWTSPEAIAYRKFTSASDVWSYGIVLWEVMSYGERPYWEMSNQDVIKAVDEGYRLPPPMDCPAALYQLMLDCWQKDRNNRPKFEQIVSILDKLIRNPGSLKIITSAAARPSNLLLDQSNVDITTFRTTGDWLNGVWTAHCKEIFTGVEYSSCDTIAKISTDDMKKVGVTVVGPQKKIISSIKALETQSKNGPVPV
# UniProt Q05397, whole entry, looked up: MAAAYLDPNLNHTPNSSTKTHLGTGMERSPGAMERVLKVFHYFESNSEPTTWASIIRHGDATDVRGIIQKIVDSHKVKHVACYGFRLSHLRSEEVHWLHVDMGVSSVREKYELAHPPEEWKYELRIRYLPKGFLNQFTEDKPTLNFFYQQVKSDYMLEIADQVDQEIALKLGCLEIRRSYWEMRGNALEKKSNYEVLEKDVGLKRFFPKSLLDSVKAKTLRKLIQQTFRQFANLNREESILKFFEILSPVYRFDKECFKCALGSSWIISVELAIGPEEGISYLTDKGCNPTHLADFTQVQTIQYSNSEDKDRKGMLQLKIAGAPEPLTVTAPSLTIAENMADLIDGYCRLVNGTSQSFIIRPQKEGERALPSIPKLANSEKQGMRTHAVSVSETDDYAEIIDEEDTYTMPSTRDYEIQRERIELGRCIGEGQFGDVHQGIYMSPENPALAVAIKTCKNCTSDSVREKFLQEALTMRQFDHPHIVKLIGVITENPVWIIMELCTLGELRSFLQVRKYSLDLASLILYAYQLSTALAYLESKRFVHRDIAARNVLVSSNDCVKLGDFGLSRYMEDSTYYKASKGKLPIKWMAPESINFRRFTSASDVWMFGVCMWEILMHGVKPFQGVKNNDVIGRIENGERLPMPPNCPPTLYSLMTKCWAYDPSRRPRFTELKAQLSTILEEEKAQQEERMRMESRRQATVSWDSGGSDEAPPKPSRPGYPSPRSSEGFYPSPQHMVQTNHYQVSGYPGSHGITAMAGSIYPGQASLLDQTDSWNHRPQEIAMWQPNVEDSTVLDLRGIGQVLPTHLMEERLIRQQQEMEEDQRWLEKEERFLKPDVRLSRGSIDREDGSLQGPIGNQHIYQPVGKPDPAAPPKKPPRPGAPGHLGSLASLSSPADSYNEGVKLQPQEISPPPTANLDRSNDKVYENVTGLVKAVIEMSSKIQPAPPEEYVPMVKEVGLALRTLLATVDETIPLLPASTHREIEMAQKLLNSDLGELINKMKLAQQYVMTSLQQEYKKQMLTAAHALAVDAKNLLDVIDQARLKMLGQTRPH
# For some assays here: This list holds what a sample rich in strong results left over. The rule behind the calls is not given here. This is a selection; strong and weak results do not stand in their true shares.
# Key:
# [1] = biological target: Dual specificity protein kinase CLK3 (Homo sapiens) (UniProt P49761); settings: at 1 µM
# [2] = biological target: Dual specificity protein kinase CLK3 (Homo sapiens) (UniProt P49761); settings: at 10 µM
# [3] = biological target: Tyrosine-protein kinase CSK (Homo sapiens) (UniProt P41240); settings: at 1 µM
# [4] = biological target: Tyrosine-protein kinase CSK (Homo sapiens) (UniProt P41240); settings: at 10 µM
# [5] = biological target: Calcium/calmodulin-dependent protein kinase type 1 (Homo sapiens) (UniProt Q14012); settings: at 1 µM
# [6] = biological target: Calcium/calmodulin-dependent protein kinase type 1 (Homo sapiens) (UniProt Q14012); settings: at 10 µM
# [7] = biological target: Calcium/calmodulin-dependent protein kinase type II subunit beta (Homo sapiens) (UniProt Q13554); settings: at 1 µM
# [8] = biological target: Calcium/calmodulin-dependent protein kinase type II subunit beta (Homo sapiens) (UniProt Q13554); settings: at 10 µM
# [9] = biological target: Calcium/calmodulin-dependent protein kinase type II subunit gamma (Homo sapiens) (UniProt Q13555); settings: at 1 µM
# [10] = biological target: Calcium/calmodulin-dependent protein kinase type II subunit gamma (Homo sapiens) (UniProt Q13555); settings: at 10 µM
# [11] = biological target: Calcium/calmodulin-dependent protein kinase type II subunit delta (Homo sapiens) (UniProt Q13557); settings: at 1 µM
# [12] = biological target: Calcium/calmodulin-dependent protein kinase type II subunit delta (Homo sapiens) (UniProt Q13557); settings: at 10 µM
# [13] = biological target: Calcium/calmodulin-dependent protein kinase type IV (Homo sapiens) (UniProt Q16566); settings: at 1 µM
# [14] = biological target: Calcium/calmodulin-dependent protein kinase type IV (Homo sapiens) (UniProt Q16566); settings: at 10 µM
# [15] = biological target: Death-associated protein kinase 1 (Homo sapiens) (UniProt P53355); settings: at 1 µM
# [16] = biological target: Death-associated protein kinase 1 (Homo sapiens) (UniProt P53355); settings: at 10 µM
# [17] = biological target: Death-associated protein kinase 2 (Homo sapiens) (UniProt Q9UIK4); settings: at 1 µM
# [18] = biological target: Death-associated protein kinase 2 (Homo sapiens) (UniProt Q9UIK4); settings: at 10 µM
# [19] = biological target: Serine/threonine-protein kinase DCLK2 (Homo sapiens) (UniProt Q8N568); settings: at 1 µM
# [20] = biological target: Serine/threonine-protein kinase DCLK2 (Homo sapiens) (UniProt Q8N568); settings: at 10 µM
# [21] = biological target: Discoidin domain-containing receptor 2 (Homo sapiens) (UniProt Q16832); settings: at 1 µM
# [22] = biological target: Discoidin domain-containing receptor 2 (Homo sapiens) (UniProt Q16832); settings: at 10 µM
# [23] = biological target: Myotonin-protein kinase (Homo sapiens) (UniProt Q09013); settings: at 1 µM
# [24] = biological target: Myotonin-protein kinase (Homo sapiens) (UniProt Q09013); settings: at 10 µM
# [25] = biological target: Serine/threonine-protein kinase 17A (Homo sapiens) (UniProt Q9UEE5); settings: at 1 µM
# [26] = biological target: Serine/threonine-protein kinase 17A (Homo sapiens) (UniProt Q9UEE5); settings: at 10 µM
# [27] = biological target: Dual specificity tyrosine-phosphorylation-regulated kinase 2 (Homo sapiens) (UniProt Q92630); settings: at 1 µM
# [28] = biological target: Dual specificity tyrosine-phosphorylation-regulated kinase 2 (Homo sapiens) (UniProt Q92630); settings: at 10 µM
# [29] = biological target: Epidermal growth factor receptor (Homo sapiens) (UniProt P00533); settings: at 1 µM
# [30] = biological target: Epidermal growth factor receptor (Homo sapiens) (UniProt P00533); settings: at 10 µM
# [31] = biological target: Ephrin type-A receptor 1 (Homo sapiens) (UniProt P21709); settings: at 1 µM
# [32] = biological target: Ephrin type-A receptor 1 (Homo sapiens) (UniProt P21709); settings: at 10 µM
# [33] = biological target: Ephrin type-A receptor 2 (Homo sapiens) (UniProt P29317); settings: at 1 µM
# [34] = biological target: Ephrin type-A receptor 2 (Homo sapiens) (UniProt P29317); settings: at 10 µM
# [35] = biological target: Ephrin type-A receptor 3 (Homo sapiens) (UniProt P29320); settings: at 1 µM
# [36] = biological target: Ephrin type-A receptor 3 (Homo sapiens) (UniProt P29320); settings: at 10 µM
# [37] = biological target: Ephrin type-A receptor 4 (Homo sapiens) (UniProt P54764); settings: at 1 µM
# [38] = biological target: Ephrin type-A receptor 4 (Homo sapiens) (UniProt P54764); settings: at 10 µM
# [39] = biological target: Ephrin type-A receptor 5 (Homo sapiens) (UniProt P54756); settings: at 1 µM
# [40] = biological target: Ephrin type-A receptor 5 (Homo sapiens) (UniProt P54756); settings: at 10 µM
# [41] = biological target: Ephrin type-A receptor 7 (Homo sapiens) (UniProt Q15375); settings: at 1 µM
# [42] = biological target: Ephrin type-A receptor 7 (Homo sapiens) (UniProt Q15375); settings: at 10 µM
# [43] = biological target: Ephrin type-A receptor 8 (Homo sapiens) (UniProt P29322); settings: at 1 µM
# [44] = biological target: Ephrin type-A receptor 8 (Homo sapiens) (UniProt P29322); settings: at 10 µM
# [45] = biological target: Ephrin type-B receptor 1 (Homo sapiens) (UniProt P54762); settings: at 1 µM
# [46] = biological target: Ephrin type-B receptor 1 (Homo sapiens) (UniProt P54762); settings: at 10 µM
# [47] = biological target: Ephrin type-B receptor 2 (Homo sapiens) (UniProt P29323); settings: at 1 µM
# [48] = biological target: Ephrin type-B receptor 2 (Homo sapiens) (UniProt P29323); settings: at 10 µM
# [49] = biological target: Ephrin type-B receptor 3 (Homo sapiens) (UniProt P54753); settings: at 1 µM
# [50] = biological target: Ephrin type-B receptor 3 (Homo sapiens) (UniProt P54753); settings: at 10 µM
# [51] = biological target: Ephrin type-B receptor 4 (Homo sapiens) (UniProt P54760); settings: at 1 µM
# [52] = biological target: Ephrin type-B receptor 4 (Homo sapiens) (UniProt P54760); settings: at 10 µM
# [53] = biological target: Receptor tyrosine-protein kinase erbB-4 (Homo sapiens) (UniProt Q15303); settings: at 1 µM
# [54] = biological target: Receptor tyrosine-protein kinase erbB-4 (Homo sapiens) (UniProt Q15303); settings: at 10 µM
# [55] = biological target: Focal adhesion kinase 1 (Homo sapiens) (UniProt Q05397); settings: at 1 µM
# [56] = biological target: Focal adhesion kinase 1 (Homo sapiens) (UniProt Q05397); settings: at 10 µM
compound,measurement,setting,value
O=C1Nc2ccc(-c3cccnc3)cc2/C1=C\c1ccc[nH]1,residual activity,[1],7%
same,residual activity,[2],1%
same,residual activity,[3],108%
same,residual activity,[4],73%
same,residual activity,[5],81%
same,residual activity,[6],22%
same,residual activity,[7],13%
same,residual activity,[8],2%
same,residual activity,[9],12%
same,residual activity,[10],-3%
same,residual activity,[11],8%
same,residual activity,[12],1%
same,residual activity,[13],103%
same,residual activity,[14],49%
same,residual activity,[15],94%
same,residual activity,[16],64%
same,residual activity,[17],85%
same,residual activity,[18],47%
same,residual activity,[19],71%
same,residual activity,[20],28%
same,residual activity,[21],110%
same,residual activity,[22],64%
same,residual activity,[23],125%
same,residual activity,[24],102%
same,residual activity,[25],1%
same,residual activity,[26],0%
same,residual activity,[27],-5%
same,residual activity,[28],-6%
same,residual activity,[29],115%
same,residual activity,[30],90%
same,residual activity,[31],87%
same,residual activity,[32],49%
same,residual activity,[33],104%
same,residual activity,[34],76%
same,residual activity,[35],105%
same,residual activity,[36],75%
same,residual activity,[37],112%
same,residual activity,[38],86%
same,residual activity,[39],102%
same,residual activity,[40],79%
same,residual activity,[41],92%
same,residual activity,[42],64%
same,residual activity,[43],92%
same,residual activity,[44],74%
same,residual activity,[45],81%
same,residual activity,[46],61%
same,residual activity,[47],112%
same,residual activity,[48],113%
same,residual activity,[49],inactive: 101%
same,residual activity,[50],121%
same,residual activity,[51],96%
same,residual activity,[52],90%
same,residual activity,[53],100%
same,residual activity,[54],71%
same,residual activity,[55],93%
same,residual activity,[56],34%
